Laboratory results: publication PMC9440122
Results are given in words; binding and its absence hold for the method and conditions named. Binding seen in cells or lysates may run through a third protein. For some assays here: Binding can be weak; no strength is given. For some assays here: Where a sequence is shown, tags or fusion partners need not be part of it.

Protein sequences, listed by entry. Tags and fused reporters are not part of them.
UniProt Q80TR8: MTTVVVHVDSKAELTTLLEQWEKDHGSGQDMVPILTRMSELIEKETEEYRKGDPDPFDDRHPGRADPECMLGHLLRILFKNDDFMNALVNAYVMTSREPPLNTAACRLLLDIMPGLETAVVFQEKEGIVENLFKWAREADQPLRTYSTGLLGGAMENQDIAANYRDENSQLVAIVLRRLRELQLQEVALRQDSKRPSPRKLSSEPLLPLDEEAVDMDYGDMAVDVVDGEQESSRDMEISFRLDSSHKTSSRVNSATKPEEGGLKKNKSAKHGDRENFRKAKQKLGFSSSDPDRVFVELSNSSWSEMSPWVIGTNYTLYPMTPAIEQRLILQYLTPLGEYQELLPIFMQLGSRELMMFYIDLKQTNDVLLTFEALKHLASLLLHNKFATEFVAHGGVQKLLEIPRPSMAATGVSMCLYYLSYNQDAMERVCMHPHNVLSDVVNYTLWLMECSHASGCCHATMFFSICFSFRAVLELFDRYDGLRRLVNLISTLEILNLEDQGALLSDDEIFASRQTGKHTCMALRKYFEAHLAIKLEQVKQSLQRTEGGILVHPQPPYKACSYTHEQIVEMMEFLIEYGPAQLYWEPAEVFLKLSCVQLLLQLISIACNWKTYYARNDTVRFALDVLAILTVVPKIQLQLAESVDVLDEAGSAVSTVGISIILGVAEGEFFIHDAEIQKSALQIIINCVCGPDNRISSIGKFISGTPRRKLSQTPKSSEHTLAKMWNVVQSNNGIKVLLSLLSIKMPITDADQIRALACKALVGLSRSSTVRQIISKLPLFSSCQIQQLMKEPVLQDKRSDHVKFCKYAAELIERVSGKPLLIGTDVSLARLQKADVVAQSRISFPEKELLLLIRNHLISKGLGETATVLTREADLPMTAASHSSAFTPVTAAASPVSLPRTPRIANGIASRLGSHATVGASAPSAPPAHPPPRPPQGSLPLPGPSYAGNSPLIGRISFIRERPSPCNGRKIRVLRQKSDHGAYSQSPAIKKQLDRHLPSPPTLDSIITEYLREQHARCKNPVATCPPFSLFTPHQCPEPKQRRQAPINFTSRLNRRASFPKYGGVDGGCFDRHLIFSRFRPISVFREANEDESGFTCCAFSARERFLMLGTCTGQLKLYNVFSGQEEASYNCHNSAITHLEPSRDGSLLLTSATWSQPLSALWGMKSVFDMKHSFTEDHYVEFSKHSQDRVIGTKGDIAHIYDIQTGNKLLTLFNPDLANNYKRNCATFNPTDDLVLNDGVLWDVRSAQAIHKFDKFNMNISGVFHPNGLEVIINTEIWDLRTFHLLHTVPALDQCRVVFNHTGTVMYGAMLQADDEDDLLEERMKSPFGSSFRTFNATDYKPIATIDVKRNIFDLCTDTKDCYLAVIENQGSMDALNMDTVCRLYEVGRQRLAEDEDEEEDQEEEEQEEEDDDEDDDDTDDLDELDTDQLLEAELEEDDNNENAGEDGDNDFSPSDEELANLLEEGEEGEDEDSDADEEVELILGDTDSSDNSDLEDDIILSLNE

Key:
[1] = biological target: T1, GFP-tagged wild-type Uhrf1 (UniProt Q8VDF2); assay: condition: only cells treated with pevonedistat (NAE inhibitor) for 24 h; co-IP; as a1, HEK293-EBNA cells transfected with GFP-Uhrf1 and mcherry-Tet1-CD and treated with the NAE inhibitor pevonedistat for 24 h
T1 sequence: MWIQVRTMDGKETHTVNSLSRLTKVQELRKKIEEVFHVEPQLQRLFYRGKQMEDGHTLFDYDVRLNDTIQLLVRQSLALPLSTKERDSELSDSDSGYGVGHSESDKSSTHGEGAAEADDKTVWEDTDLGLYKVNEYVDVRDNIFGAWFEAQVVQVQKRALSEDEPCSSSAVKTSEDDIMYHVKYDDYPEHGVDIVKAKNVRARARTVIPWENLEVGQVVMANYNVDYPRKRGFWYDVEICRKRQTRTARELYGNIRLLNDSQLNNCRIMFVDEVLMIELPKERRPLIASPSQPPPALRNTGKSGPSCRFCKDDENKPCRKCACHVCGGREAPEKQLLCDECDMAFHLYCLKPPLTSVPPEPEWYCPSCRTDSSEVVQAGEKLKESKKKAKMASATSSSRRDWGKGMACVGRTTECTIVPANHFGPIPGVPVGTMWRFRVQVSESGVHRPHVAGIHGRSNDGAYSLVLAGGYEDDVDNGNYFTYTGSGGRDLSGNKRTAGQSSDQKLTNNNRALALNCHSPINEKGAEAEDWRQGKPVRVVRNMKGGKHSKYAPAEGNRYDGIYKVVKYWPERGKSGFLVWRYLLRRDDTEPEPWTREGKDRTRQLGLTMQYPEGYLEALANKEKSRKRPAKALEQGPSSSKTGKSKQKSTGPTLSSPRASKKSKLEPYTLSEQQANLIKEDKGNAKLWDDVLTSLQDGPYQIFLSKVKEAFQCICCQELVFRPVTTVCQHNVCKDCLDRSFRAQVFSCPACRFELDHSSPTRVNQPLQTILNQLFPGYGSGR

[2] = biological target: GFP-tagged Uhrf1 RING domain (UniProt Q8VDF2); assay: co-IP; HEK293-EBNA cells co-transfected (or prey endogenous); lysate in 20 mM Tris-HCl pH 8, 150 mM NaCl, 0.5 mM EDTA, 0.5% NP-40; GFP-tagged bait held on GFP-binding nanobody (GBP) beads, 4 °C, 90 min; western blot; untreated or DMSO control cells
[3] = biological target: GFP-tagged Uhrf1 SRA domain (UniProt Q8VDF2); assay: as above
GFP-tagged VprBP (mouse) = GFP-tagged VprBP (mouse) (UniProt Q80TR8); assay: as above
[4] = biological target: T1, GFP-tagged wild-type Uhrf1; assay: as above

mcherry-tagged Tet1 catalytic domain (from UniProt Q3URK3-1) (domain or fragment)
binding [1]: no binding | binding [2]: binds | binding [3]: binds | binding (GFP-tagged VprBP (mouse)): binds | binding [4]: binds
